Data as given in PubChem BioAssay AID192 (DTP/NCI, 2004).
The list shows only some results of the screen, not a fair sample: it is rich in T/C values a quarter to a half above the control, in often repeated tests (any T/C) and in doses without a T/C. Other doses and runs of a compound stand elsewhere. T/C is the treated group as % of the vehicle group. Some entries give survivors of the animals treated and no T/C: the source holds a T/C of zero for them, seemingly a mark for toxic or unscored doses. Some doses without a T/C left all or most animals alive at the check, yet need not have been tolerated: the source hardly ever lists a survival T/C far under the control, and the zero likely stands for such cases as well. Survivors were counted at the toxicity check, usually on the fifth day, unless a day is given; later deaths do not show. Schedule codes are those of the source, read here as Q, the interval in days (D) or hours (H), X, the number of doses. Some molecules as drawn cover several salts, stereoisomers or complexes of the source; a dose is that of the sample tested. Some entries were tested several times; their values stand side by side, smallest first. Where survival is the endpoint, this PubChem deposit counts one and a half times the control or more as active, and values a quarter to a half above the control carry no call in these data; other NCI protocols may use other cut-offs.

Test system: BDF1 mice, B16 melanoma ip, median survival T/C
Test: NCI In Vivo Anticancer Drug Screen. Data for tumor model B16 Melanoma (intraperitoneal) in B6D2F1 (BDF1) mice
Details: T/C endpoint: median survival time, higher T/C = longer survival
Method in brief: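 Antitumor activity is assessed in mice bearing a transplanted tumor, with survival or tumor size compared against vehicle-dosed controls and expressed as T/C.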

[1] = dose: 100.0 mg/kg/injection, schedule: Q01DX009 (ip), vehicle: Klucel (hydroxypropylcellulose) (HPC)
[2] = dose: 200.0 mg/kg/injection, schedule: Q01DX009 (ip), vehicle: Klucel (hydroxypropylcellulose) (HPC)
[3] = dose: 25.0 mg/kg/injection, schedule: Q01DX009 (ip), vehicle: Klucel (hydroxypropylcellulose) (HPC)
[4] = dose: 50.0 mg/kg/injection, schedule: Q01DX009 (ip), vehicle: Klucel (hydroxypropylcellulose) (HPC)
[5] = dose: 0.39 mg/kg/injection, schedule: Q01DX009 (ip), vehicle: Klucel (hydroxypropylcellulose) (HPC)
[6] = dose: 1.56 mg/kg/injection, schedule: Q01DX009 (ip), vehicle: Klucel (hydroxypropylcellulose) (HPC)
[7] = dose: 6.25 mg/kg/injection, schedule: Q01DX009 (ip), vehicle: Klucel (hydroxypropylcellulose) (HPC)
[8] = dose: 12.5 mg/kg/injection, schedule: Q01DX009 (ip), vehicle: Klucel (hydroxypropylcellulose) (HPC)
[9] = dose: 200.0 mg/kg/injection, schedule: Q01DX009 (ip), vehicle: saline

[Cl][Mn][Cl]
T/C (dose: 17.8 mg/kg/injection, schedule: Q01DX009 (ip), vehicle: saline): 125 % of control | T/C (dose: 17.8 mg/kg/injection, schedule: Q01DX009 (ip), vehicle: water): 135 % of control | T/C (dose: 26.7 mg/kg/injection, schedule: Q01DX009 (ip), vehicle: water): 128 % of control | T/C (dose: 40.0 mg/kg/injection, schedule: Q01DX009 (ip), vehicle: water): 139 % of control | survivor count (dose: 90.0 mg/kg/injection, schedule: Q01DX009 (ip), vehicle: saline): 5 of 10 and 8 of 10 | survivor count (dose: 90.0 mg/kg/injection, schedule: Q01DX009 (ip), vehicle: water): 9 of 10 | survivor count (dose: 100.0 mg/kg/injection, schedule: Q01DX009 (ip), vehicle: water): 9 of 10 | survivor count (dose: 135.0 mg/kg/injection, schedule: Q01DX009 (ip), vehicle: saline): 0 of 10 | survivor count (dose: 135.0 mg/kg/injection, schedule: Q01DX009 (ip), vehicle: water): 2 of 10 | survivor count (dose: 135.0 mg/kg/injection, schedule: Q01DX009 (sc), vehicle: water): 6 of 10 | survivor count (dose: 202.5 mg/kg/injection, schedule: Q01DX009 (sc), vehicle: water): 2 of 10

COc1ccc2c(ccc3oc([N+](=O)[O-])cc32)c1
survivor count [1]: 10 of 10 | survivor count [2]: 10 of 10

COc1cc2c(cc1O)N=C[C@@H]1CCC(O)N1C2=O (mixture of isomers)
survivor count (dose: 8.0 mg/kg/injection, schedule: Q01DX009 (ip), vehicle: saline): 8 of 10 | survivor count (dose: 16.0 mg/kg/injection, schedule: Q01DX009 (ip), vehicle: saline): 0 of 10 | survivor count (dose: 32.0 mg/kg/injection, schedule: Q01DX009 (ip), vehicle: saline): 0 of 10

CCC(CC)(COC(N)=O)COC(N)=O
survivor count [3]: 9 of 10 | survivor count [4]: 9 of 10 | survivor count [1]: 10 of 10 | survivor count [2]: 10 of 10 | survivor count (dose: 400.0 mg/kg/injection, schedule: Q01DX009 (ip), vehicle: Klucel (hydroxypropylcellulose) (HPC)): 10 of 10

Cc1c[n+]2c3ccccc3c3ccccc3c2s1
survivor count (dose: 40.0 mg/kg/injection, schedule: Q01DX009 (ip), vehicle: saline): 3 of 6 | survivor count (dose: 80.0 mg/kg/injection, schedule: Q01DX009 (ip), vehicle: saline): 3 of 6

C[C@]12CC[C@H](O)C[C@@H]1CC[C@@H]1[C@@H]2C(=O)C[C@@]2(C)[C@H]1CC[C@]2(O)C(=O)CBr
survivor count [2]: 4 of 6

CCN1/C(=C/C(C)=C/c2sc3ccccc3[n+]2CC)Sc2ccccc21
survivor count (dose: 0.2 mg/kg/injection, schedule: Q01DX009 (ip), vehicle: saline with Tween-80): 4 of 6 | survivor count (dose: 0.4 mg/kg/injection, schedule: Q01DX009 (ip), vehicle: saline with Tween-80): 5 of 6

CCCCCC[C@H]([C@H](C)O)n1cnc2c(N)ncnc21
survivor count [1]: 10 of 10 | survivor count [2]: 0 of 10 and 9 of 10

CCCCCCCCCCCCCCCC[N+]1(CC)CCCC1
survivor count [5]: 10 of 10 | survivor count (dose: 0.4 mg/kg/injection, schedule: Q01DX009 (ip), vehicle: Klucel (hydroxypropylcellulose) (HPC)): 9 of 10 | survivor count (dose: 0.78 mg/kg/injection, schedule: Q01DX009 (ip), vehicle: Klucel (hydroxypropylcellulose) (HPC)): 8 of 10 | survivor count [6]: 5 of 10 | survivor count (dose: 3.12 mg/kg/injection, schedule: Q01DX009 (ip), vehicle: Klucel (hydroxypropylcellulose) (HPC)): 0 of 10 and 1 of 10 | survivor count [7]: 1 of 10 | survivor count [8]: 0 of 10 | survivor count [3]: 0 of 10 | survivor count [4]: 0 of 10

OC(c1ccccc1)(c1ccccc1)C1CC1c1ccncc1 (configuration not stated)
survivor count [9]: 0 of 10

COC1OC2COC(c3ccccc3)OC2C(O)C1N (configuration not stated)
T/C (dose: 25.0 mg/kg/injection, schedule: Q04DX003 (ip), vehicle: saline with Tween-80): 144 % of control | T/C (dose: 100.0 mg/kg/injection, schedule: Q04DX003 (ip), vehicle: saline with Tween-80): 147 % of control

CCCCNC(=O)Nc1cccc(C)c1C
survivor count [2]: 7 of 10

CC(C)CC(NC(=O)C(N)C(C)C)C(=O)NC(CCCCN)C(=O)Nc1ccc(N(CCCl)CCCl)cc1 (configuration not stated)
T/C (dose: 2.98 mg/kg/injection, schedule: Q01DX009 (ip), vehicle: saline): 134 and 140 % of control | survivor count (dose: 11.9 mg/kg/injection, schedule: Q01DX009 (ip), vehicle: saline): 10 of 10 | survivor count (dose: 23.8 mg/kg/injection, schedule: Q01DX009 (ip), vehicle: saline): 10 of 10

S=c1[nH]c2ccc(Cl)cc2s1
survivor count (dose: 75.0 mg/kg/injection, schedule: Q04DX003 (ip), vehicle: Klucel (hydroxypropylcellulose) (HPC)): 10 of 10 | survivor count (dose: 150.0 mg/kg/injection, schedule: Q04DX003 (ip), vehicle: Klucel (hydroxypropylcellulose) (HPC)): 10 of 10 | survivor count (dose: 300.0 mg/kg/injection, schedule: Q04DX003 (ip), vehicle: Klucel (hydroxypropylcellulose) (HPC)): 10 of 10

C1=CC2(OCCO2)C2CC=CC3(OCCO3)C2C1 (configuration not stated)
survivor count [3]: 10 of 10 | survivor count [2]: 7 of 10

CS(=O)(=O)c1cnc2ccccc2n1
survivor count (dose: 100.0 mg/kg/injection, schedule: Q01DX009 (ip), vehicle: saline with Tween-80): 10 of 10 | survivor count (dose: 200.0 mg/kg/injection, schedule: Q01DX009 (ip), vehicle: saline with Tween-80): 8 of 10 | survivor count (dose: 400.0 mg/kg/injection, schedule: Q01DX009 (ip), vehicle: saline with Tween-80): 5 of 10

CC(=O)Oc1cc2c3c(c1)CCCN3CCC2
survivor count (dose: 12.5 mg/kg/injection, schedule: Q01DX009 (ip), vehicle: saline with Tween-80): 8 of 10 | survivor count (dose: 125.0 micrograms/kg/injection, schedule: Q01DX009 (ip), vehicle: saline with Tween-80): 10 of 10

CN1CCN(CCC=C2c3ccccc3Sc3ccc(S(=O)(=O)N(C)C)cc32)CC1
survivor count (dose: 6.25 mg/kg/injection, schedule: Q01DX009 (ip), vehicle: saline): 10 of 10

COc1ccc2c(c1OC)C13CCCCC1C(C2)[N+](C)(C)CC3 (configuration not stated)
survivor count (dose: 0.09 mg/kg/injection, schedule: Q01DX009 (ip), vehicle: Klucel (hydroxypropylcellulose) (HPC)): 10 of 10 | survivor count (dose: 0.19 mg/kg/injection, schedule: Q01DX009 (ip), vehicle: Klucel (hydroxypropylcellulose) (HPC)): 10 of 10 | survivor count [5]: 10 of 10 | survivor count [6]: 10 of 10 | survivor count [7]: 10 of 10 | survivor count [8]: 10 of 10 | survivor count [3]: 10 of 10 | survivor count [4]: 9 of 10

O=C(O)C1OC1C(=O)O (configuration not stated)
T/C (dose: 150.0 mg/kg/injection, schedule: Q01DX009 (ip), vehicle: saline): 127 % of control

COc1cc2c(cc1OC)[C@H]1CNC[C@H]1[C@@H](c1ccccc1)C2
survivor count [9]: 7 of 10

c1cc(NC2CCCCC2)ccc1CN1CCOCC1
survivor count (dose: 400.0 mg/kg/injection, schedule: Q01DX009 (ip), vehicle: saline + Tween-80 + alcohol): 10 of 10

NC(Cn1ccc(=O)c(O)c1)C(=O)O (configuration not stated)
survivor count (dose: 400.0 mg/kg/injection, schedule: Q01DX009 (ip), vehicle: saline): 9 of 10 | survivor count (dose: 600.0 mg/kg/injection, schedule: Q01DX007 (ip), vehicle: saline with Tween-80): 9 of 10 | survivor count (dose: 800.0 mg/kg/injection, schedule: Q01DX009 (ip), vehicle: saline): 8 of 10 | survivor count (dose: 1200.0 mg/kg/injection, schedule: Q01DX009 (ip), vehicle: saline): 4 of 10 | survivor count (dose: 1600.0 mg/kg/injection, schedule: Q01DX009 (ip), vehicle: saline): 2 of 10

ClCCN(CCCl)c1ccc(/C=C/c2ccccc2)cc1
survivor count [2]: 8 of 8
